Measured values published in patent publication US20250002599A1.
These are yes or no findings as the source states them, for the method shown. Some binding calls cover weakened binding; strength is not graded here.

Sequences of proteins named here, by UniProt entry; tags and fusion partners are left off. A change or cut given only in a name is not applied to a line headed by its entry. A line that says so, or that is headed by a name, gives the form on record, which may keep a tag or linker.
M3 (Q07011, form named): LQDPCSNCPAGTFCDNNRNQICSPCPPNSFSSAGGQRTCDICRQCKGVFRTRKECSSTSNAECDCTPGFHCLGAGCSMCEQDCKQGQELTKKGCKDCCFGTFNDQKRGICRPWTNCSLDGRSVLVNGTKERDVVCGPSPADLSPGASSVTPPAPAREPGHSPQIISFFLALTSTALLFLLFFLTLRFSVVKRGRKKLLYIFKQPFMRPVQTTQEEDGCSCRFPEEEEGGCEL
M4 (Q07011, form named): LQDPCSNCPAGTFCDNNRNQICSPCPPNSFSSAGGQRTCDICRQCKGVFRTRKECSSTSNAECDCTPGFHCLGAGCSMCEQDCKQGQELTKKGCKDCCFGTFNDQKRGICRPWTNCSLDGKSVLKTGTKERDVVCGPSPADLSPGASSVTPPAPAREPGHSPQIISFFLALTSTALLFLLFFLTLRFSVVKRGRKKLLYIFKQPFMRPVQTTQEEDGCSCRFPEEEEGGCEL

Columns and labels:
[1] = target: M3 (Homo sapiens) (UniProt Q07011); experiment: flow cytometry on HEK293T cells transiently transfected with human CD137 mutant M3; one antibody concentration, not given
[2] = target: M4 (Homo sapiens) (UniProt Q07011); experiment: flow cytometry on HEK293T cells transiently transfected with human CD137 mutant M4; one antibody concentration, not given

B1: 1923Ab4 (antibody, V domains shown)
VH: QVQLVESGGGVVQPGRSLRLSCAASGFTFSNYGMHWVRQAPGKGLEWVAIIWYDGINKYYADSVKGRFTISRDNSKNTLYLQMNSLKAEDTAVYYCARDQDYDILTGYYKEDYFDFWGQGTLVTVSS
VL: SYELTQPPSVSVSPGQTARITCSGDALPKKYAYWYQQKSGQAPVLVIYEDSKRPSGIPERFSGSSSGTMATLTISGAQVEDEADYYCYSTDSSGNRVFGGGTKLTVL
- binding [1]: binds
- binding [2]: binds
